In the supplement of paper PMC12067093, “Discovery and optimisation of a covalent ligand for TRIM25 and its application to targeted protein ubiquitination” (Chemical Science, 2025):
This is one part of the list.

Compound: CC1Cc2ccccc2N1C(=O)C1CCCN(C1)C(=O)CCl (mixture of isomers) [TRIM25 ligand 11 (diastereomer mixture)]
Test: probe-labelled cysteine peptide fold change vs DMSO (competition) (log2 fold change); higher = less target engagement (more negative = stronger competition)
Conditions: THP-1, incubation time: 4 h
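Further: competitive chemoproteomic profiling in live THP-1 cells with an iodoacetamide desthiobiotin (IA-DTB) probe, comparing probe-labelled peptide intensities in compound-treated cells against DMSO-treated controls.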

Target	probe-labelled cysteine peptide fold change (10 µM)	probe-labelled cysteine peptide fold change (50 µM)
HNRNPH2_P55795_22_GLPWSCSADEVMR (UniProt P55795)	0.194	-0.0503
HPCAL1_P37235_38_DCPTGHLTVDEFKK (UniProt P37235)	-0.0734	-0.0031
HNRNPU_Q00839_594_MCLFAGFQR (UniProt Q00839)	-0.121	-0.0218
HNRNPU_Q00839_607_AVVVCPK (UniProt Q00839)	0.17	0.108
HSDL2_Q6YN16_166_QHCAYTIAK (UniProt Q6YN16)	0.021	0.112
HTATIP2_Q9BUP3_172_YSVFRPGVLLCDR (UniProt Q9BUP3)	-0.0618	-7.7e-05
HOXA11_P31270_82_GNLAHCYSAEELVHR (UniProt P31270)	0.0655	-0.134
HNRNPLL_Q8WVV9_357_VFNLFCLYGNIEK (UniProt Q8WVV9)	-0.0521	0.0536
HNRNPLL_Q8WVV9_505_TLSGLLEWECK (UniProt Q8WVV9)	0.0315	-0.00786
HSPH1_Q92598_290_LMSSNSTDLPLNIECFMNDK (UniProt Q92598)	0.00551	-0.101
HNRNPDL_O14979_277_GFCFITYTDEEPVK (UniProt O14979)	0.00264	-0.0345
HNRNPH2_P55795_290_YGDGGSSFQSTTGHCVHMR (UniProt P55795)	0.0276	-0.211
HSPA5_P11021_41_KEDVGTVVGIDLGTTYSCVGVFK (UniProt P11021)	0.169	0.0722
HSPA14_Q0VDF9_440_QHTLQAPGSISSVCLELYESDGK (UniProt Q0VDF9)	0.0676	-0.0323
HNRNPA1_P09651_43_SHFEQWGTLTDCVVMRDPNTK (UniProt P09651)	-0.0525	-0.0919
HNRNPU_Q00839_389+391_TCNCETEDYGEK (UniProt Q00839)	0.302	0.197
HSPA4L_O95757_421_TSFEDGSGECEVFCK (UniProt O95757)	-0.134	-0.0508
HNRNPUL1_Q9BUJ2_391_AEPYCSVLPGFTFIQHLPLSER (UniProt Q9BUJ2)	-0.0675	-0.191
HSPA2_P54652_18_GPAIGIDLGTTYSCVGVFQHGK (UniProt P54652)	-0.0169	0.188
HNRNPK_P61978_184+185_LFQECCPHSTDRVVLIGGKPDR (UniProt P61978)	-0.407	-0.363
HSPBP1_Q9NZL4_269_GTLCSMGMVQQLVALVR (UniProt Q9NZL4)	0.0217	0.156

Target	probe-labelled cysteine peptide fold change (10 µM)	probe-labelled cysteine peptide fold change (50 µM)
HNRNPL_P14866_452_LNVCVSK (UniProt P14866)	-0.0403	0.0431
HNRNPL_P14866_404_VFNVFCLYGNVEK (UniProt P14866)	-0.0413	0.00937
HOMEZ_Q8IX15_273_DKPPPIALIASSCK (UniProt Q8IX15)	-0.095	0.115
HNMT_P50135_31_FLNHSTEHQCMQEFMDK (UniProt P50135)	0.0155	-0.145
HSD17B12_Q53GQ0_166_MININILSVCK (UniProt Q53GQ0)	-0.0213	-0.0637
HPS6_Q86YV9_164_AEGPSGSPAAAFSHCVCVR (UniProt Q86YV9)	0.392	0.0398
HNRNPLL_Q8WVV9_474_LCNDHEVLTFIK (UniProt Q8WVV9)	0.0754	-0.118
HSP90AA1_P07900_598_LVTSPCCIVTSTYGWTANMER (UniProt P07900)	-0.043	0.15
HSP90AA1_P07900_420_CLELFTELAEDK (UniProt P07900)	0.0827	-0.0288
HSPA4_P34932_245_KFDEVLVNHFCEEFGK (UniProt P34932)	0.0733	-0.000172
HSD17B12_Q53GQ0_215_TFVDFFSQCLHEEYR (UniProt Q53GQ0)	0.0883	0.0348
HSPA14_Q0VDF9_394_ENLLVEDSLMIECSAR (UniProt Q0VDF9)	-0.368	-0.17
HSDL2_Q6YN16_218_TAIHTAAMDMLGGPGIESQCR (UniProt Q6YN16)	-0.0961	-0.23
HSPA9_P38646_608_MEEFKDQLPADECNK (UniProt P38646)	-0.338	-0.172
HMGCS1_Q01581_268_DFTLNDFGFMIFHSPYCK (UniProt Q01581)	0.0999	-0.0576
HSPA9_P38646_366_TIAPCQK (UniProt P38646)	-0.177	0.00341
HSPA9_P38646_608_DQLPADECNK (UniProt P38646)	0.0667	0.182
HPS3_Q969F9_831_TSEDLINACSHYGLIYPWVHVVISSDSLADK (UniProt Q969F9)	-0.0328	0.158
HNRNPF_P52597_22+34_GLPWSCSVEDVQNFLSDCTIHDGAAGVHFIYTR (UniProt P52597)	0.143	-0.0897
HSD17B10_Q99714_91_FGRVDVAVNCAGIAVASK (UniProt Q99714)	-0.206	-0.122
HP1BP3_Q5SSJ5_412_GFSGTFQLCFPYYPSPGVLFPK (UniProt Q5SSJ5)	-0.137	-0.378

Target	probe-labelled cysteine peptide fold change (10 µM)	probe-labelled cysteine peptide fold change (50 µM)
HSF1_Q00613_373_CLSVACLDK (UniProt Q00613)	-0.0613	-0.215
HSPBP1_Q9NZL4_325_CQLLQQHEEYQEELEFCEK (UniProt Q9NZL4)	-0.173	0.0703
HPS1_Q92902_165_LREQEQCFAVEALER (UniProt Q92902)	-0.0165	-0.0382
HMOX2_P30519_127_DMEYFFGENWEEQVQCPK (UniProt P30519)	-0.0367	0.00744
HSPA2_P54652_606_VCNPIISK (UniProt P54652)	-0.0994	-0.035
HSPBP1_Q9NZL4_310_ECREPELGLEELLR (UniProt Q9NZL4)	-0.0116	-0.0253
HSPH1_Q92598_310_SQFEELCAELLQK (UniProt Q92598)	-0.173	-0.14
HSPA4_P34932_290_KLMSANASDLPLSIECFMNDVDVSGTMNR (UniProt P34932)	0.132	-0.31
HNRNPUL2_Q1KMD3_518_DLLVQQASQCLSK (UniProt Q1KMD3)	0.128	-0.00731
HSD17B4_P51659_277_KICDFENASKPQSIQESTGSIIEVLSK (UniProt P51659)	-0.118	-0.218
HSPH1_Q92598_140_KPVTDCVISVPSFFTDAERR (UniProt Q92598)	-0.0644	-0.0386
HNRNPK_P61978_145_GSDFDCELR (UniProt P61978)	-0.031	-0.0896
HSP90AA1_P07900_374_VFIMDNCEELIPEYLNFIR (UniProt P07900)	0.135	0.211
HPS4_Q9NQG7_547_MNLYTHCVK (UniProt Q9NQG7)	-0.106	0.0236
HNRNPD_Q14103_226_GFCFITFKEEEPVK (UniProt Q14103)	-0.0444	-0.0734
HSPA4L_O95757_34+38_CTPACISLGSR (UniProt O95757)	0.00672	0.0153
HTATIP2_Q9BUP3_91_NVNQEVVDFEKLDDYASAFQGHDVGFCCLGTTR (UniProt Q9BUP3)	-0.287	0.0321
HMGB3_O15347_23_MSAYAFFVQTCR (UniProt O15347)	-0.208	-0.392
HSPH1_Q92598_650_LCGPYEK (UniProt Q92598)	-0.0962	0.12
HSPA2_P54652_191_KGCAGGEK (UniProt P54652)	-0.0518	-0.0114
HPRT1_P00492_206_DLNHVCVISETGK (UniProt P00492)	0.0402	0.0203

Target	probe-labelled cysteine peptide fold change (10 µM)	probe-labelled cysteine peptide fold change (50 µM)
HNRNPUL2_Q1KMD3_308_EGCTEVSLLR (UniProt Q1KMD3)	0.0447	0.0554
HP1BP3_Q5SSJ5_359_TCSTTALK (UniProt Q5SSJ5)	-0.00507	-0.0802
HSD17B10_Q99714_58_KLGNNCVFAPADVTSEK (UniProt Q99714)	0.11	0.0296
HPS3_Q969F9_647_QVPHILCSPSMK (UniProt Q969F9)	0.000983	-0.0869
HSPD1_P10809_447_CIPALDSLTPANEDQK (UniProt P10809)	0.0164	-0.115
HNRNPK_P61978_184_LFQECCPHSTDR (UniProt P61978)	0.0719	-0.0203
HSPA1A_P0DMV8_17_AAAIGIDLGTTYSCVGVFQHGK (UniProt P0DMV8)	-0.106	0.167
HNRNPUL1_Q9BUJ2_487_WDVLIQQATQCLNR (UniProt Q9BUJ2)	-0.207	0.00768
HSP90AB1_P08238_521_KRGFEVVYMTEPIDEYCVQQLK (UniProt P08238)	-0.0445	-0.285
HPS5_Q9UPZ3_1085_AWSLLQECGLALELSEK (UniProt Q9UPZ3)	-0.037	0.0022
HSDL1_Q3SXM5_42_SITVICDFYSLIR (UniProt Q3SXM5)	-0.156	0.00598
HSP90AA4P_Q58FG1_178_DLIMDNCEELIPEYLNFIR (UniProt Q58FG1)	0.182	0.348
HSP90AB1_P08238_366_VFIMDSCDELIPEYLNFIR (UniProt P08238)	-0.0155	-0.053
HSPBP1_Q9NZL4_341_CQLLQQHEEYQEELEFCEK (UniProt Q9NZL4)	0.0296	0.188
HSD17B4_P51659_425_LKCEAVVADVLDK (UniProt P51659)	0.0809	0.215
HOOK3_Q86VS8_199_CHELDMQVAALQEEK (UniProt Q86VS8)	-0.00654	-0.0781
HNRNPA0_Q13151_36_GHFEAFGTLTDCVVVVNPQTK (UniProt Q13151)	-0.0152	0.0374
HNRNPA1_P09651_43_SHFEQWGTLTDCVVMR (UniProt P09651)	0.0151	-0.061
HSF1_Q00613_378_CLSVACLDK (UniProt Q00613)	0.0176	-0.171
